Experimental data taken from PubChem BioAssay AID1508600 (Functional Genomics Laboratory (NCATS/FGL), 2020).
Screen size: about 53,000 sequences; about 3,700 (7%) were called active.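 The calls were made as follows: active = gene knockdowns whose robust z-score for IL-1 alpha signal is at least 2 or at most -2, so actives lie on both sides; inactive = the rest.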 The list shows a part of the results.

Assay: Components of the Cytosolic LPS Sensing Pathway: Gene Identification via Genome-wide siRNA Screen;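 also: robust z of the log signal after scaling to non-targeting control siRNA wells of the plate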
Conditions: RAW264.7 macrophages, IL-1a HTRF, actives lie on both sides, screened at 100 nM (by protocol), cells primed 5 h with Pam3CSK4 first
In short: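 Knockdown: 100 nM siRNA, 48h, RAW264.7. Stimulation: Pam3CSK4 5 h, then LipidA via TransIT-TKO 24 h. Output: supernatant IL-1a HTRF, negative-control-normalized, log robust z-score; viability by CellTiter-Glo.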

Sequence	z-score
GGAUUUGAUGUGUUCAAUGTT against Nmt2	inactive: 0.48
GGAUCCAUUAGUCAAGAAGTT against Ints12	inactive: 0.566
GGGUAUGGACCCUAUAUAATT against Osgep	inactive: 0.2
GGAACCUAAUUAGCAAAGCTT against Riiad1	inactive: 0.728
GGCGACAAAAAGGCUAAGCTT against Khnyn	inactive: 0.437
GGCAAAGAUCGCAUCUUAATT against Ago2	inactive: 1.35
GGCGUGAACCAAACAGACUTT against Calcrl	inactive: -0.604
GGAAUAUGCUGUCAAGAUCTT against Mknk2	inactive: -0.322
GGAUAAAGGAAAAGAAACATT against Rcvrn	inactive: -1.34
GGAGGAUUUCAAGACAGCATT against Tprg	inactive: -1.12
CCGUCUGGACAACAAACACTT against P2rx5	inactive: 0.616
GGCAUUCCAGUAAAGGAGCTT against Fbxw4	inactive: 0.147
GCCGGUGAAUAAUCAUGCUTT against Nrn1	inactive: 0.0683
GGUCCUAGCUUCCUUUUACTT against Lrrc8b	inactive: -0.0324
CCUUCCAGUAGUAAUUCAUTT against Hopx	inactive: 0.396
CUACUUCGAGAACAUGGGUTT against Tpgs1	inactive: -0.749
GGAAAGCAAGUCGUAAGCCTT against Mrps10	inactive: -0.755
GGAAACUUCCCUUCCUAACTT against Snrpc	inactive: -0.397
GGAAGUCAAGUAGAACUGUTT against Agtr2	inactive: -0.206
GCAGAAUAUUAACCAGUGUTT against Ptp4a2	inactive: 1.15
GCCUAUGCAGCUCUCUCUGTT against Acat3	inactive: 0.772
CGGUUUUGACCUUCCACCUTT against Olfr110	inactive: 0.451

Sequence	z-score
GGAGAUACAGAAAUUUCUCTT against Baat	inactive: 0.847
GGGAAGGCUGUGAAUACAGTT against Syt7	inactive: 1.87
GGUCAGCAGUUUUCUAACUTT against Mtus2	inactive: -1.95
GGGUAGAGACUACUUAGUATT against Pramel7	inactive: 0.623
GGAUACCUAUCUGCACUUCTT against Prss52	inactive: -1.74
GGUUUUUGAAGAGUUAACATT against D16Ertd472e	inactive: 0.0461
GGACUUACAUGGAAUUUUATT against Eftud2	active: -2.07
GCAUGUAUGCUGGAAAAUCTT against Zfp942	inactive: -0.403
GCAGAGGCUCUCCUUAUAGTT against Ccser2	inactive: 0.747
CGAACCACUUGUUUAAAAUTT against Cops2	inactive: 0.306
GGAUCUUUCCUGAUUUAUATT against Ggt5	inactive: 0.989
GGCCUUUAAGACCAUUCGATT against Scyl1	inactive: 0.252
GGGCUAGCUAACCACAAUUTT against Glipr2	inactive: 0.818
GGCCUUAGUUUAUACAUGUTT against Dusp18	inactive: 0.628
GGGCUGACUGUGAAGUAUGTT against Cdnf	inactive: 1.44
GCAAUUGUUAGAAAAAGGGTT against Rnasel	inactive: -0.382
GGAUGGACCUGUUGUGAUUTT against Ssr2	inactive: 1.47
GGCUGCUGAUUAUAUGUUCTT against Sprr2e	inactive: 0.842
GGAUAACCUUUUUGAAUGGTT against Ube2j1	inactive: 0.137
GGAGUUUAAUUACCAAACATT against Edrf1	inactive: -0.747
GGUGAGCGACAAUAUGAGUTT against Fsd1	inactive: -0.091
GGAGAGAAUAAGAAGAAGATT against Ptprc	inactive: 0.115

Exported comma-delimited: part of the list above
Sequence,z-score
GGGAAGGCUGUGAAUACAGTT against Syt7,inactive: 1.87
GGAUCUUUCCUGAUUUAUATT against Ggt5,inactive: 0.989
GGGCUAGCUAACCACAAUUTT against Glipr2,inactive: 0.818
GGAUAACCUUUUUGAAUGGTT against Ube2j1,inactive: 0.137
GGAGUUUAAUUACCAAACATT against Edrf1,inactive: -0.747
GGAGAGAAUAAGAAGAAGATT against Ptprc,inactive: 0.115

The results go on:

Sequence	z-score
GGACUUUCUAAAUAGCUUCTT against Gucy1a1	inactive: 0.883
GGCUUUUGACAAGCAUAUGTT against Snrpn	inactive: -0.419
GGGUAUAGAAUUGUCUAUUTT against Fn1	inactive: 1.19
GGUAUGUCUGCAUAAAUGUTT against Cyp2c38	active: 2.74
GGGUAGCUUUAAAUAAAGGTT against Olfr801	active: 2.47
GUACCUAGGCAUCAAUGUCTT against Trhr2	inactive: -0.514
GCAAUGUUCAAUAUCCAAGTT against Fut9	inactive: 1.11
CCCUCGACUUCUUACUGUCTT against Scyl2	inactive: -0.369
GCCAUCCGAUGCCUUAAUUTT against Mtap	inactive: -0.807
GGAUCAUGAUUAGUUACAATT against Pdzrn3	inactive: -1.05
GGUCAUUCUAGUCCAGGAUTT against Pkd1l2	inactive: -1.68
GGUUCUCUGAAAUAAACUUTT against 9530002B09Rik	inactive: 0.888
CCCUGACUAUACGUAUAACTT against Selplg	inactive: -1.52
CGGUAUCUACAUCAUAAACTT against Rpsa	inactive: 0.172
GGUGUACGUCCUACAAGGUTT against Pofut2	inactive: 0.0999
GGACUUGAGUCAGCUCAUCTT against Fastk	inactive: -1.38
GCCGACAGUUAAGUUUCUCTT against Supt3	inactive: -0.265
CCCUCAACCUGCAUUUUAATT against Lgals2	inactive: -0.861
CGUGCUUUCAUGUUCCCUATT against Mfsd2a	inactive: 0.054
GGAACAAAAAUGUUGACCATT against Trub1	inactive: 1.26
GCACCACACGGAUGAGUUUTT against Tgm1	inactive: 1.33
GCAGUGUGAACAAUUGAGATT against Mpl	inactive: -0.0939

Sequence	z-score
GGAUAUUCUUCCUCUCUUUTT against Pramel20	inactive: -0.224
GGCCAAAGAGGAGGAAAACTT against Ccdc92	inactive: -0.428
GGAGGUCGCUACCUUCUAUTT against Top1mt	inactive: -0.795
CGAUGACGAAUACAACCGGTT against Nkx6-2	inactive: -0.363
ACAACUAUACUGGACAGUCTT against Olfr329	inactive: 0.669
GGAACCUUAAAGAUAGAUUTT against Npepps	inactive: 1.16
GGAUUAAAAUACCUUCACGTT against Map3k5	inactive: -0.568
GCCGACGUAGUGACAUUCUTT against Crybb3	inactive: 1.45
GGACUGGUUCUUCAGAUCCTT against Depp1	active: 3.31
GCAGUACAAAACCAAGCGGTT against Slc1a1	inactive: 1.56
GGGUAGGUUAGGGAGUAAATT against Siah1a	inactive: -0.94
GGUUCUUAGCCUUAACCAUTT against Ttc39b	inactive: 0.593
GGAAAGAGAUACAGAAUCUTT against Brca2	inactive: 0.302
CCGGAUCCUGGUUAAAAGUTT against Fgd1	inactive: -0.445
GCUCCGUAAGAAGUCUCGUTT against Dhx16	inactive: -0.676
GCCACCAAACGAUGGUAUCTT against Ficd	inactive: 0.413
UUAAGGUCACCUUCAAUGCTT against Cox11	inactive: 0.349
GGUUAGUUUGUUCAAAUCCTT against Slc6a3	inactive: 1.31
GGCAGCAGGAUGCAGAAAUTT against Ngef	active: -2.43
GGUAUUUUGACCGAAUCAATT against Add3	inactive: -0.294
GGAGUCUUUAGUGACAUCCTT against AW549877	inactive: -0.506
CGGUCCCAAACGGUCAAGUTT against Tafa2	inactive: 1.69

Sequence	z-score
GCCUUUUCAAAACACUUUCTT against Zfp935	inactive: 0.249
GCAAGUCUGCUAAAGGAUUTT against Taf5l	inactive: -1.86
GGAGCUGAGAGUAAAUGAATT against Clcnkb	inactive: 0.357
GGAGGUAUGGCGGUGAUUATT against Krt77	inactive: 0.718
GGUAUUGGAUCAUUUACAATT against Nae1	inactive: -0.0968
CCUAUCAUUCUCAAAGGGATT against Lrrn4cl	inactive: -0.507
GGAACUCACUACAGUUUAGTT against Dhx35	inactive: 0.785
CGACUACCACACGUGGAAUTT against Hvcn1	inactive: 1.36
GGCUCUGUGGCACACUUAUTT against Olfr1211	inactive: -1.41
GGCAAAAGCAAGCUCACAGTT against Cdk16	inactive: -1.18
GGAUCAGCUUGUUCUCAGATT against Prl8a1	inactive: -0.23
GGCGAGGAGAACAUGCUGUTT against Nphp3	inactive: 0.497
GCUCAGACCACCUAAGAGUTT against Tmprss3	inactive: 0.575
GGAAAGGACUGUAGAGCGATT against Eml4	inactive: -0.888
CCUAUCUCACAUAGGUUUATT against Grb14	inactive: 1.56
GCAUGUGGAGAACGACUAUTT against Arhgap8	inactive: -0.263
GGAGAUCAACCACAAUGUUTT against Tekt1	inactive: 1.01
GGAUUGUGGGUUUAUAUAATT against Olfr835	inactive: 0.274
GCGACCGUAUUGUCACUUGTT against Arpc1a	inactive: -0.465
